Results reported in patent publication US20220073565A1 (University of Washington, published 2022).
No constants are given. Whether binding was seen depends on the method and setting. Some binding calls cover weakened binding; strength is not graded here.

Biological target: T1, mSin3A-PAH2 domain (UniProt Q60520 300-383, biotin)
T1 construct: domain: PAH2; 0.1 µg immobilised on streptavidin biosensor tips; also called Biotin-mSin3A-PAH2; PAH2 domain of the mSin3A transcriptional repressor
T1 sequence (looked up): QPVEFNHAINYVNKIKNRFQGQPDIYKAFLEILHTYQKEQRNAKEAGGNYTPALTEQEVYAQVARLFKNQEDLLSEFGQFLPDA
Test: bio-layer interferometry, Biotin-mSin3A-PAH2 on streptavidin tips, 50 nM cage with 500 nM Keya

binding: binds
B1: 1fix_309_Mad1 (designed binder)
chain: MGSHHHHHHGSGSENLYFQGSKEAAKKLQDLNIELARKLLEASTKLQRLNIRLAEALLEAIARLQELNLELVYLAVELTDPKRIRDEIKEVKDKSKEIIRRAEKEIDDAAKESKKILEEARKAIRDAAEESRKILEEGSGSGSDALDELQKLNLELAKLLLKAIAETQDLNLRAAKAFLEAAAKLQELNIRAVELLVKLTDPATIRRALEHAKRRSKEIIDEAERAIRAAKRESERIIEEARRLIEKAKEESERIIREGSGSGDPDIKKLQDLNIELARELLRAHAQLQRLNLELLRELLRALAQLQELNLDLLRLASELTDPDEARKNIQMLLEAADYLEEDAERLIREAAAASEKISREAERLIREAASEKISRE
